# From patent US20240277684A1, “BLOCKADE OF CHEMOKINE (C-C MOTIF) RECEPTOR 2 DURING FLUID RESUSCITATION” (University of South Florida, priority 2022, published 2024)
# Tests used:
# hemorrhagic shock [1] = experiment: Example 1 second series: 30 min hemorrhagic shock, fluid resuscitation until t=300 min; type: in vivo, rat
# Description: In vivo animal experiments. All procedures were performed in accordance with the National Institutes of Health Guidelines for Use of Laboratory Animals and were approved by the University of South Florida Institutional Animal Care and Use Committeee (IS00008139). Male Sprague-Dawley rats (300-400 g, Envigo, Indianapolis, IN, USA). were anesthetized with 1.7% isoflurane via nose-cone inhalation with the SomnoSuite anesthesia system (Kent Scientific, Torrington, CT, USA). […] The left femoral artery was isolated and cannulated with a 24-gauge peripheral intravenous catheter to allow for blood withdrawal, hemodynamic monitoring, drug administration, and fluid resuscitation. Hemodynamics were continuously monitored with the SurgivetV6400 blood pressure monitor (Med-Electronics, Beltsville, MD, USA), and blood pressures and heart rate were recorded at 1-10 min intervals. All animals were observed over a 10 min period to ensure hemodynamic stability before start of the experiments. All experiments were performed randomized in alternating order.
# To test the effects of INCB3284 and Maraviroc after HS, a Wiggers fixed pressure hemorrhage and fluid resuscitation model was used as described (Babu F S, et al., Chemokine (C-X-C motif) receptor 4 regulates lung endothelial barrier permeability during resuscitation from hemorrhagic shock. Physiol Res 2019; 68(4):675-679; Nassoiy S P, et al., Effects of the Kv7 voltage-activated potassium channel inhibitor linopirdine in rat models of haemorrhagic shock. Clin Exp Pharmacol Physiol 2018; Nassoiy S P, et al., Kv7 voltage-activated potassium channel inhibitors reduce fluid resuscitation requirements after hemorrhagic shock in rats. J Biomed Sci 2017; 24(1):8; Bach H Ht, et al., Proteasome inhibition prolongs survival during lethal hemorrhagic shock in rats. […]
# Arterial blood gases and routine laboratory parameters. Arterial blood gases, electrolytes, creatinine, lactate, hematocrit and hemoglobin were analyzed using the Element point of care veterinary blood gas, electrolyte and critical care analyzer (Cuattro Veterinary USA, Loveland, CO, USA). […]
# hemorrhagic shock [2] = experiment: Example 2 Series 2: 60 min hemorrhagic shock, single dose, fluid resuscitation until t=300 min; type: in vivo, rat; details: 1.1 μmol/kg SB328437 or 5 μmol/kg INCB3284 at t=60 min, vs vehicle
# Description: The hemorrhagic shock models were performed as described previously, with slight modifications (DeSantis A J, et al., The Chemokine (C-C Motif) Receptor 2 Antagonist INCB3284 Reduces Fluid Requirements and Protects From Hemodynamic Decompensation During Resuscitation From Hemorrhagic Shock. Crit Care Explor 2022;4(5):e0701; Bach H H, et al., Chemokine (C-X-C motif) receptor 4 and atypical chemokine receptor 3 regulate vascular alpha(1)-adrenergic receptor function. Mol Med 2014; 20:435-47; Nassoiy S P, et al., Effects of the Kv7 voltage activated potassium channel inhibitor linopirdine in rat models of hemorrhagic shock. Clin Exp Pharmacol Physiol 2018. doi: 10.1111/1440-1681.12958. […] Hemodynamics were continuously monitored with the Surgivet invasive blood pressure monitor (Med-Electronics, Beltsville, MD, USA). Blood pressures were recorded at 1-5 min intervals during the hemorrhage and resuscitation periods. […] In all experiments animals were continuously monitored and remained under general anesthesia until euthanasia or death, as defined by asystole or loss of pulse pressure. […]
# Arterial blood gases and routine laboratory parameters. Arterial blood gases, electrolytes, creatinine, lactate, hematocrit and hemoglobin were analyzed using the Element point of care veterinary blood gas, electrolyte and critical care analyzer (Cuattro Veterinary USA, Loveland, CO, USA).
SMILES,Lactate concentrations after the HS period (hemorrhagic shock [1]; 5 μmol/kg),Hematocrit values (hemorrhagic shock [1]; 5 μmol/kg vs vehicle),Partial pressures of O2/CO2 in arterial blood and creatinine concentrations (hemorrhagic shock [1]; 5 μmol/kg vs vehicle),"Hematocrit values, blood gases and lactate concentrations (hemorrhagic shock [2])"
COc1ccc([C@]2(O)CC[C@@H](N3CC[C@@H](NC(=O)CNC(=O)c4cccc(C(F)(F)F)c4)C3)CC2)cn1 [INCB3284],partially normalized,indistinguishable between groups,indistinguishable between groups,comparable among the groups
COC(=O)[C@H](Cc1ccc([N+](=O)[O-])cc1)NC(=O)c1cccc2ccccc12 [SB328437],,,,comparable among the groups
